These are yes or no findings as the source states them, for the method shown. Binding seen in cells or lysates may run through a third protein. Some results given as binding are weak or reduced against the parent protein; the word gives no strength.

Protein sequences, listed by entry. Tags and fused reporters are not part of them. Residues count along the entry.
UniProt P16092, residues 22-822: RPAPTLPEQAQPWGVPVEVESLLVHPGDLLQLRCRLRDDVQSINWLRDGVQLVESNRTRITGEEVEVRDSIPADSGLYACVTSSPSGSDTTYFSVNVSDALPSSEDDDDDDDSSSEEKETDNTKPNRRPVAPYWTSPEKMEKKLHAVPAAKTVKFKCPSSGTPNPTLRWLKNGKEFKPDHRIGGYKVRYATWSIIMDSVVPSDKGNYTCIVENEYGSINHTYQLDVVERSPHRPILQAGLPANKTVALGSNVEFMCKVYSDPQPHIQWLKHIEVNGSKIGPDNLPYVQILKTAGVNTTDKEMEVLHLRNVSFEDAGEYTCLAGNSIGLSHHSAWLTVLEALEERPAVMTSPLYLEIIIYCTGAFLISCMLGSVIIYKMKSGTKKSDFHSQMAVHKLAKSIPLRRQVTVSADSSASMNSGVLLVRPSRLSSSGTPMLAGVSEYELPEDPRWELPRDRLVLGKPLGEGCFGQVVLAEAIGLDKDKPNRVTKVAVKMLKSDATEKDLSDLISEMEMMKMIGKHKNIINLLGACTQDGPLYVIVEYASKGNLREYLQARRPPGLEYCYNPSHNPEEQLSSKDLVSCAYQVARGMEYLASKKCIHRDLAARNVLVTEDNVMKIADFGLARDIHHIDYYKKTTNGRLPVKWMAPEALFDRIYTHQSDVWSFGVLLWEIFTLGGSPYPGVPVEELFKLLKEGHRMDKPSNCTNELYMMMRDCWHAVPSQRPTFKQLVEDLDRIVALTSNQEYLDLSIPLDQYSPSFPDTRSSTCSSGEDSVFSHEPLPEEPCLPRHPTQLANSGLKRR
UniProt Q03142, residues 17-799: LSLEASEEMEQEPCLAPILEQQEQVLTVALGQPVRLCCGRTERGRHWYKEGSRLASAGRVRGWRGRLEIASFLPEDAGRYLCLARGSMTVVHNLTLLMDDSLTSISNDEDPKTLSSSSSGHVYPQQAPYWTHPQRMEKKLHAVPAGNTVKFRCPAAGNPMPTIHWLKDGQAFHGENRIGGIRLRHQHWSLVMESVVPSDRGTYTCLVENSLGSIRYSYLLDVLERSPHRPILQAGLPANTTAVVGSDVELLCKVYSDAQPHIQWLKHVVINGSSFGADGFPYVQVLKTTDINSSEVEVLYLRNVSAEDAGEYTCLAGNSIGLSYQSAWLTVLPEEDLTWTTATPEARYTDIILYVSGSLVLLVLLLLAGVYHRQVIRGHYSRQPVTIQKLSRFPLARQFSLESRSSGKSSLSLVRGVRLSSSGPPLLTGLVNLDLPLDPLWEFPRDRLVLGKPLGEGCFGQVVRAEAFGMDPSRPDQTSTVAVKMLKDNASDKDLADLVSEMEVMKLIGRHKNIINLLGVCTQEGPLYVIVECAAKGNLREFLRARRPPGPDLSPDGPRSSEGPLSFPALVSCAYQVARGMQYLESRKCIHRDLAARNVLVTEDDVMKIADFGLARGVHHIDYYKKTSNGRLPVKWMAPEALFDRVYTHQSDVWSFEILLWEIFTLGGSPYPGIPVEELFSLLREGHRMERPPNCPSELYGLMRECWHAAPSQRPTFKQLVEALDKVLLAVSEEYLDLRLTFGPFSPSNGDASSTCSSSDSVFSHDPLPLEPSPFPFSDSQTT
UniProt P09055, residues 21-798: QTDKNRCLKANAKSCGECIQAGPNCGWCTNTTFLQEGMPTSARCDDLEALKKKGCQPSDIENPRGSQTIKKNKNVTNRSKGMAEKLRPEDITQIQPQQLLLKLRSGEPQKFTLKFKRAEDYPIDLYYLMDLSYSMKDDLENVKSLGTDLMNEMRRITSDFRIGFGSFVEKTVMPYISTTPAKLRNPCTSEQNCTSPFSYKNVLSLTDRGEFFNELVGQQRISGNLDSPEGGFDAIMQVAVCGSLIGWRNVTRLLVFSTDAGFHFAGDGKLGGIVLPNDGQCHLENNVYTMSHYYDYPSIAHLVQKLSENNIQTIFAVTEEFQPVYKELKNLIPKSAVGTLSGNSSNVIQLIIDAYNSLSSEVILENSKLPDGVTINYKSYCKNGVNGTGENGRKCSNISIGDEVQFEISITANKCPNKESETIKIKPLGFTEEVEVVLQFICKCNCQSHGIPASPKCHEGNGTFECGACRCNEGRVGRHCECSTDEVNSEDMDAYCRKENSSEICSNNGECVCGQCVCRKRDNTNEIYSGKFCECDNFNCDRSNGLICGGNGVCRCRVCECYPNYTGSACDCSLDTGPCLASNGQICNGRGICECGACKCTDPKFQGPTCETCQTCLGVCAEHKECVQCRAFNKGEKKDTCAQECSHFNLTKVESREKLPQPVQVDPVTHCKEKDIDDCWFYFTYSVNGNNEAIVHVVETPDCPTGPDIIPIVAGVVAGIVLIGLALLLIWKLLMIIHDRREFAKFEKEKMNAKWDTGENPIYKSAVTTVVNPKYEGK

This is an account of results in publication PMC7432598.

The target of experiment [1] is T1, Cdon (mouse (endogenous in C2C12)) (UniProt Q32MD9).
T1 sequence: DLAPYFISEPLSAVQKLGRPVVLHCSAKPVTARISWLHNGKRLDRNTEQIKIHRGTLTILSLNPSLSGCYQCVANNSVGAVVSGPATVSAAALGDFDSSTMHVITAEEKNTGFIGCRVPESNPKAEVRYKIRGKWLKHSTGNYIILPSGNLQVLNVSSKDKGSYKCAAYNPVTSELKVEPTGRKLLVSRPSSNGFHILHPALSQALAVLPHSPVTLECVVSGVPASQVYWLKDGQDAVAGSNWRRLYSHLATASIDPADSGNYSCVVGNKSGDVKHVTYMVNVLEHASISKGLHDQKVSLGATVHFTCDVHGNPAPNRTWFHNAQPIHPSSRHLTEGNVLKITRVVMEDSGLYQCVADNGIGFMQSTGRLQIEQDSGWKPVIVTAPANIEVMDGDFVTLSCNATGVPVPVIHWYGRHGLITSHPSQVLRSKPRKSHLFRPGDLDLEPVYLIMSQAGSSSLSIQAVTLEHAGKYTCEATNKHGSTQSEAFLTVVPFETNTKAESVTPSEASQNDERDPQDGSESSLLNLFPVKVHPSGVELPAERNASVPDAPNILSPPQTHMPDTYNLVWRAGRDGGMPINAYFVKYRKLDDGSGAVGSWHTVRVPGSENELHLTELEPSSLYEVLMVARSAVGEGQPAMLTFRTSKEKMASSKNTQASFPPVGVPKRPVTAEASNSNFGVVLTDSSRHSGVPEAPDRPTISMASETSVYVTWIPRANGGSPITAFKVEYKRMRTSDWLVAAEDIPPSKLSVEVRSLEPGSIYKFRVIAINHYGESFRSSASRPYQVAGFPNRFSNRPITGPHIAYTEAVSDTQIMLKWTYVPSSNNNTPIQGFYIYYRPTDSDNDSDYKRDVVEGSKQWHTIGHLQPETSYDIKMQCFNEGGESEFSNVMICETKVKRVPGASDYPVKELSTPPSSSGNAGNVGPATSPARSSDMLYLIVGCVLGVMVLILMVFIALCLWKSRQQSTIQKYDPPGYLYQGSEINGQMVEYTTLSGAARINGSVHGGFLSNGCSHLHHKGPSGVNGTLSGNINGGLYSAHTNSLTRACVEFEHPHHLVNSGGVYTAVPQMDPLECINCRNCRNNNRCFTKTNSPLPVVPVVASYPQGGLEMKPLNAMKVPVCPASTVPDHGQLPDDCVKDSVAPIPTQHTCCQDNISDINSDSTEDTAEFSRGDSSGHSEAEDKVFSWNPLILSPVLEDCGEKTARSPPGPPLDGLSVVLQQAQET
Kind of experiment: co-IP; endogenous proteins in C2C12 cell extracts; immunoprecipitation with control IgG or Cdon antibodies overnight at 4°C, protein A- or G-agarose beads, western blotting for FGFR1 and FGFR4. On the technique in general: A western blot detects proteins with antibodies after separation by electrophoresis.

For experiment [2], the target named is T2, Cdon (overexpressed in 293T cells) (UniProt Q32MD9).
T2 sequence: T1 sequence
Put plainly: co-IP; lysates of 293T cells transfected with control, Itgb1 and/or Cdon vectors; immunoprecipitation with Cdon antibodies and immunoblotting.

As for “FGFR1 (from UniProt P16092 22-822) (receptor)”, the binding entry in experiment [1] was “binds”.
Take “FGFR4 (from UniProt Q03142 17-799) (receptor)”: the binding result in experiment [1] is “binds”.
For the substance “Itgb1 (overexpressed in 293T cells) (from UniProt P09055 21-798) (receptor)”, in experiment [2], the binding entry was “no binding”.
